Test results reported in PMC5649179.
These are yes or no findings as the source states them, for the method shown. Binding seen in cells or lysates may run through a third protein. Some results given as binding are weak or reduced against the parent protein; the word gives no strength.

The chains behind the UniProt entries cited, without tags or fusion partners.
UniProt P63074: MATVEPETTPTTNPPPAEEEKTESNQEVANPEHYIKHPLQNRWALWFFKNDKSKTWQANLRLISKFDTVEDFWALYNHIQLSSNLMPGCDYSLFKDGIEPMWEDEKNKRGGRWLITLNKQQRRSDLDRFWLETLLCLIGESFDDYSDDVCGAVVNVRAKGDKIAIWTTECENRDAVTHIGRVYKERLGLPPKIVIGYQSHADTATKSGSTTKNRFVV
UniProt Q9EPW1: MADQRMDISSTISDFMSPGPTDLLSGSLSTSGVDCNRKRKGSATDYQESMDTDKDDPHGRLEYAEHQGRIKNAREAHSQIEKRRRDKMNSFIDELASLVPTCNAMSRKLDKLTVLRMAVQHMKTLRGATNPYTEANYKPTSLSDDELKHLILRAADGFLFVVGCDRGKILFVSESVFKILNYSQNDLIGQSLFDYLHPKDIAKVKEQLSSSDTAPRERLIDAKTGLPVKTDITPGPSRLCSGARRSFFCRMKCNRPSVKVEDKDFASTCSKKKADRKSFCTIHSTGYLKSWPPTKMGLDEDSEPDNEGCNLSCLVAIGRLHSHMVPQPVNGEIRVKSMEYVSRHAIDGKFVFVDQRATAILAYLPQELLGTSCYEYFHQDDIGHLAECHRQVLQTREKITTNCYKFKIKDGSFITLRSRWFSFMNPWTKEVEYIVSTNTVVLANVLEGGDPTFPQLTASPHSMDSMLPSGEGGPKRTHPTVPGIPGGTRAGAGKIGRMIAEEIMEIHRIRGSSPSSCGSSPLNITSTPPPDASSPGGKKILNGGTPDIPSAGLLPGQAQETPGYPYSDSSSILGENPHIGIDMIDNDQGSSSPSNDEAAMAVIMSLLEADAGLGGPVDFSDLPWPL

Target: eukaryotic translation initiation factor eIF4E (rat (endogenous in prefrontal cortex and hippocampus)) (UniProt P63074)
Test: pull-down; m7GTP (cap) pull-down: 300-400 ug protein of rat prefrontal cortex or hippocampus lysate with 30 ul 7-methyl GTP-agarose beads, 2 h at 4 °C, lysis buffer 50 mM Tris, 100 mM NaCl, 1 mM EDTA, 0.5% NP-40, 1 mM DTT; three washes; eIF4E held by the cap analogue, bound proteins found by immunoblot and normalised to recovered eIF4E; animals undisturbed at ZT0 or ZT12, or after 3 days of active work (ZT0) or rest work (ZT12)

Row | Substance | binding
1 | brain-and-muscle arnt-like protein 1 (total BMAL1) (from UniProt Q9EPW1 1-626) | binds
2 | phosphorylated brain-and-muscle arnt-like protein 1 (p-BMAL1) (from UniProt Q9EPW1 1-626) | binds
